Structures can show the parent of a compound that is named as a salt. ± gives the standard deviation of the averaged measurements. This is one part of the list. Values are raw readings; no control value is given beside them.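 HeLa cells imaged for ribosome-assembly readouts (ENP1 staining with or without export block, or inducible tagged ribosomal protein reporters); machine learning classified each cell's signal location against solvent (DMSO) controls. Hits exceeded the DMSO false-positive mean by five standard deviations, then were visually confirmed; three biological replicates.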
The molecules below were run on HeLa K (ENP1 immunofluorescence, +LMB) (assay: fraction of cells with nucleolar or nucleolar/nucleoplasmic ENP1 signal (MainHitrate); higher = more cells with nucleolar/nuclear readout signal (for ENP1 -LMB: less RNAPI inhibition; for +LMB ENP1 and RP reporters: stronger nuclear/nucleolar retention, i.e. ribosome biogenesis defect)). Settings: concentration: 1 µM; treatment time: 6 h; ENP1 +LMB; leptomycin B: 20 nM, last 1.5 h.

Row | Compound | fraction
1 | CN(C)CCOC(c1ccccc1)c1ccccc1 [Diphenhydramine HCl (Benadryl)] | 0.0759 ± 0.1
2 | CCC(NC(C)C)C(O)c1ccc(O)c(O)c1 (stereo not drawn) [Isoetharine Mesylate] | 0.137 ± 0.17
3 | CN(C)c1ccc(C(=C2C=CC(=[N+](C)C)C=C2)c2ccc(N(C)C)cc2)cc1 [Crystal violet] | 0.206 ± 0.32

The molecules below were run on HeLa K (ENP1 immunofluorescence, no LMB) in the same assay as above. Settings: concentration: 1 µM; treatment time: 6 h; ENP1 -LMB; leptomycin B: none.

Row | Compound | fraction
4 | O=C(C1CCCCC1)N1CC(=O)N2CCc3ccccc3C2C1 (stereo not drawn) [Praziquantel (Biltricide)] | 0.9976 ± 0.0041
5 | NC[C@H]1O[C@H](O[C@H]2[C@H](O)[C@@H](O[C@H]3O[C@H](CO)[C@@H](O)[C@H](N)[C@H]3O)[C@H](N)C[C@@H]2N)[C@H](N)[C@@H](O)[C@@H]1O [Bekanamycin] | 0.9989 ± 0.0019
6 | NS(=O)(=O)c1cc2c(cc1Cl)NC(C(Cl)Cl)NS2(=O)=O (stereo not drawn) [Trichlormethiazide (Achletin)] | 0.9979 ± 0.0037
7 | NC(CO)(CO)CO [Trometamol] | 0.993 ± 0.013
8 | CCCNC(C)C(=O)Nc1c(C)csc1C(=O)OC (stereo not drawn) [Articaine HCl] | 0.993 ± 0.012
9 | [O-][n+]1cccc(CO)c1 [Mepiroxol] | 0.997 ± 0.0052
10 | O=c1[nH]cnc2c1ncn2[C@H]1CC[C@@H](CO)O1 [Didanosine (Videx)] | 0.9986 ± 0.0025
11 | OC(Cn1cncn1)(Cn1cncn1)c1ccc(F)cc1F [Fluconazole] | 0.9991 ± 0.0016
12 | CCOC(=O)CC(=O)N1CCSC1COc1ccccc1OC (stereo not drawn) [Moguisteine] | 0.989 ± 0.019
13 | CCCCCCNC(=O)n1cc(F)c(=O)[nH]c1=O [Carmofur] | 0.9992 ± 0.0013
14 | Cc1cc(-n2c(=O)[nH]c(=O)n(C)c2=O)ccc1Oc1ccc(SC(F)(F)F)cc1 [toltrazuril] | 0.992 ± 0.015
15 | O=c1ccn([C@@H]2O[C@H](CO)[C@@H](O)[C@H]2O)c(=O)[nH]1 [Uridine] | 0.99 ± 0.017
16 | CCc1cc(C(N)=S)ccn1 [Ethionamide] | 0.9988 ± 0.0022
17 | CC(C)NC[C@H](O)COc1ccc(CCOCC2CC2)cc1 [Levobetaxolol HCl] | 0.985 ± 0.026
18 | COc1cnc(NS(=O)(=O)c2ccc(N)cc2)nc1 [Sulfameter (Bayrena)] | 0.9981 ± 0.0032
19 | Cc1ccc2c(Cl)cc(Cl)c(O)c2n1 [Chlorquinaldol] | 0.979 ± 0.036
20 | OC(CNCC(O)C1CCc2cc(F)ccc2O1)C1CCc2cc(F)ccc2O1 (stereo not drawn) [Nebivolol (Bystolic)] | 0.9985 ± 0.0025
21 | CC(C)NCC(O)COc1cccc2ccccc12 (stereo not drawn) [Propranolol HCl] | 0.986 ± 0.024
22 | COc1cc2nc(N3CCN(C(=O)C4COc5ccccc5O4)CC3)nc(N)c2cc1OC (stereo not drawn) [Doxazosin mesylate] | 0.9982 ± 0.0031
23 | CCCN(CCC)CCc1cccc2c1CC(=O)N2 [Ropinirole HCl] | 0.985 ± 0.025

Row | Compound | fraction
24 | CC(=O)NC[C@H]1CN(c2ccc(N3CCOCC3)c(F)c2)C(=O)O1 [Linezolid (Zyvox)] | 0.9985 ± 0.0026
25 | CN1CCC[C@@H]1CCO[C@](C)(c1ccccc1)c1ccc(Cl)cc1 [Clemastine Fumarate] | 0.99 ± 0.018
26 | COc1ccccc1N1CCN(CCCNc2cc(=O)n(C)c(=O)n2C)CC1 [Urapidil HCl] | 0.991 ± 0.015
27 | CC(=O)Oc1cc2c(s1)CCN(C(C(=O)C1CC1)c1ccccc1F)C2 (stereo not drawn) [Prasugrel (Effient)] | 0.9987 ± 0.0023
28 | CN(C)[C@@H]1C(O)=C(C(N)=O)C(=O)[C@@]2(O)C(O)=C3C(=O)c4c(O)cccc4[C@@](C)(O)[C@H]3[C@H](O)[C@@H]12 [Oxytetracycline dihydrate] | 0.976 ± 0.042
29 | OC(CCN1CCCCC1)(c1ccccc1)c1ccccc1 [Pridinol Methanesulfonate] | 0.9978 ± 0.0039
30 | CCOC(=O)c1ccc(OC(=O)CCCCCNC(=N)N)cc1 [Gabexate mesylate] | 0.9973 ± 0.0047
31 | N[C@@H]1CONC1=O [D-Cycloserine] | 0.99 ± 0.017
32 | C[C@H](N)[C@H](O)c1cccc(O)c1 [Metaraminol Bitartrate] | 0.9943 ± 0.0098
33 | CC[C@@H]1C(=O)OC[C@@H]1Cc1cncn1C [Pilocarpine HCl] | 0.985 ± 0.025
34 | CCOCC(O)COc1ccc(NC(=O)CC[S+](C)C)cc1 (stereo not drawn) [Suplatast tosylate] | 0.991 ± 0.016
35 | CC(C)(C)c1cc(C(C)(C)C)c(NC(=O)c2c[nH]c3ccccc3c2=O)cc1O [Ivacaftor (VX-770)] | 0.998 ± 0.0035
36 | CN(Cc1ccc(C(C)(C)C)cc1)Cc1cccc2ccccc12 [Butenafine HCl] | 0.979 ± 0.035
37 | Cn1cnc([N+](=O)[O-])c1Sc1ncnc2[nH]cnc12 [Azathioprine (Azasan, Imuran)] | 0.9985 ± 0.0026
38 | Cc1cc2nc3c(=O)[nH]c(=O)nc-3n(C[C@H](O)[C@H](O)[C@H](O)CO)c2cc1C [Riboflavin (Vitamin B2)] | 0.994 ± 0.011
39 | C/C(O)=C(\C#N)C(=O)Nc1ccc(C(F)(F)F)cc1 [Teriflunomide] | 0.988 ± 0.021
40 | CC(=O)O[C@@]12CO[C@@H]1C[C@H](O)[C@@]1(C)C(=O)[C@H](O)C3=C(C)[C@@H](OC(=O)[C@H](O)[C@@H](NC(=O)OC(C)(C)C)c4ccccc4)C[C@@](O)([C@@H](OC(=O)c4ccccc4)[C@H]21)C3(C)C [Docetaxel (Taxotere)] | 0.993 ± 0.012
41 | CN(C)CCOC(c1ccccc1)c1ccccc1 [Diphenhydramine HCl (Benadryl)] | 0.994 ± 0.011
42 | CCC(NC(C)C)C(O)c1ccc(O)c(O)c1 (stereo not drawn) [Isoetharine Mesylate] | 0.9953 ± 0.0082
43 | CN(C)c1ccc(C(=C2C=CC(=[N+](C)C)C=C2)c2ccc(N(C)C)cc2)cc1 [Crystal violet] | 0.975 ± 0.043

— the supplement of paper PMC12542422
